PubChem BioAssay AID1259276, Sanger Institute – 2017

- Test: 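Kinase knock-downs that reduce colorectal cancer cell viability alone or with anchor drugs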 (primary screen)
- System: human C2BBe1 colorectal cancer cells
- Reagent: siRNA pool against human genes
- Challenge: DMSO vehicle, or one anchor drug: BYL719 at 1 µM, cetuximab at 5 µg/ml, or trametinib at 10 nM; exposure length not stated
- Measured: 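Cell viability as a fraction of non-targeting control wells, mean of replicates, also as a control-based robust z-score, plus a synergy score for each anchor drug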
- Direction: viability robust z-score, siRNA alone and viability vs control, siRNA alone: higher = more viable cells after knock-down; synergy score with BYL719: higher = stronger combined killing with BYL719; synergy score with cetuximab: higher = stronger combined killing with cetuximab
- Hit rule: 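a siRNA pool tested without drug is essential if its viability robust z-score falls under -3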
- Calls: active = essential (siRNA alone); inactive = no change (siRNA alone)
This is a random part of 794 reagents tested. Of all reagents, 24 (3%) got an active call. 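Calls come only from the siRNA-alone arm; drug synergy scores do not affect them.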 Viability is capped at 1. Further read-outs or replicates are left out here. Reagent sequences are not shown. The record does not give: the amount of reagent, the time to read-out.

gene knocked down | viability robust z-score, siRNA alone | viability vs control, siRNA alone | synergy score with BYL719 | synergy score with cetuximab | Call
LMTK3 | -2.11 | 0.837 | 0.0237 | 0.0996 | inactive
TRIB3 | 0.472 | 1 | 0.264 | 0.0201 | inactive
PRKAG1 | 0.472 | 1 | -0.142 | 0.19 | inactive
SMAD2 | 0.472 | 1 | 0.0126 | -0.0115 | inactive
MAP4K2 | -0.729 | 0.924 | 0.33 | 0.0428 | inactive
PRKAR1A | 0.472 | 1 | 0.118 | 0.00673 | inactive
STK32A | 0.472 | 1 | -0.142 | -0.0115 | inactive
TWF1 | 0.472 | 1 | -0.142 | 0.241 | inactive
MAP3K12 | 0.472 | 1 | 0.00737 | -0.0115 | inactive
MKNK1 | 0.472 | 1 | -0.142 | -0.0115 | inactive
EIF2AK2 | 0.472 | 1 | -0.0563 | -0.0115 | inactive
MAPKAPK5 | 0.472 | 1 | -0.131 | -0.0115 | inactive
ETNK1 | 0.472 | 1 | 0.0363 | -0.0115 | inactive
PANK2 | 0.472 | 1 | -0.142 | 0.0199 | inactive
TNK1 | 0.472 | 1 | 0.00407 | -0.0115 | inactive
PIM3 | 0.472 | 1 | -0.142 | -0.0115 | inactive
MYLK4 | 0.472 | 1 | -0.123 | -0.0115 | inactive
ERN1 | -0.168 | 0.96 | -0.07 | -0.0199 | inactive
ALK | 0.472 | 1 | -0.142 | -0.0115 | inactive
CDK5R2 | 0.472 | 1 | -0.142 | -0.0115 | inactive

Only “synergy score with BYL719”, for 2 of the entries above:
EIF2AK2: -0.0563
MAPKAPK5: -0.131
